Test results published in article PMC11033214.
These are yes or no findings as the source states them, for the method shown. In cells and extracts the contact can be indirect. A result given as binding can be weak or reduced; the word gives no strength.

How the values were obtained:
[1] = target: KREPB4 (B4) F207V, C-terminally 3xV5-tagged (Trypanosoma brucei); assay: co-IP; anti-V5 immunoprecipitation from cleared lysate of procyclic form (PF) T. brucei exclusively expressing V5-tagged B4, four days after repression of the regulatable WT B4 allele; IPP150 (10 mM Tris-HCl pH 8.0, 150 mM NaCl, 1% NP-40) with 1% Triton X-100, 4°C; Western blot with monoclonal antibodies against KREPA1, KREPA2, KREL1, KREPA3
[2] = target: KREPB4 (B4) K211I, C-terminally 3xV5-tagged (Trypanosoma brucei); assay: as above
[3] = target: KREPB4 (B4) R174H, C-terminally 3xV5-tagged (Trypanosoma brucei); assay: co-IP; anti-V5 immunoprecipitation from cleared lysate of bloodstream form (BF) T. brucei exclusively expressing V5-tagged B4, two days after repression of the regulatable WT B4 allele; IPP150 (10 mM Tris-HCl pH 8.0, 150 mM NaCl, 1% NP-40) with 1% Triton X-100, 4°C; Western blot with monoclonal antibodies against KREPA1, KREPA2, KREL1, KREPA3

Measured: binding

B1: KREPA2 (protein, UniProt A0A3L6L0V2 1-587)
chain: MYRRFFRSAAVKHLGTTSAQCLMRATKYPCGAMCRNASSCHPQTLGYQQRFQSTTDKKFHCSVCKKPFRLEMAAKLHLQQAHGGDGSVEAGPGPGVEASSVNVVSTPVPSPISPVERTFVDEEERRPRRMRPTPKPLHQPDRDIPAAAMEEMLGVWDKIGLNRLEGNFVHSTMVMKVFAAPPDVSEIPLYEHVAPEGENPFDSLDHMTTGTVDATYVGHDAFAEVDLVDPFVAAPDQTLNPFRAGKVRNPFTRISPTQREVVKPLQPPQPKEEPLKAPVTPFGQLPMFGQTREPSASFAAAAVSVQAAANPNEVSSPFAAAVSSSPFVGQVASPFAPAQDVAGSPFEASPCAASSPFVTAGGQETSPFAAPSTPASFGQGSLFPPMGTGAPGFTAITETEQRQQELEHGCPTCGKKFSTFEGAAMHSKSKHGIVLESKKVKDRLNRKGVPDLPAYVPSPVDLSSTSPFGTRSAIGASWAETELIPHAQCVSNITIVGRVLDVSQASENVSHVTVFVEGERSGEEETLTLCCFGEVSQKIRGTLKRNATIFASGTLRLHPVYEASNNKYYVSPVVHVSMPTGTLAVIT
binds: [1] | [2] | [3]
